Data: paper PMC4669759
These are yes or no findings as the source states them, for the method shown. Some binding calls cover weakened binding; strength is not graded here.

B1: VP16AD–NOXA, Q13794 1-54 (protein)
chain: MPGKKARKNAQPSPARAPAELEVECATQLRRFGDKLNFRQKLLNLISKLFCSGT
B2: mCherry-BAD, Q92934 1-168 (protein)
chain: MFQIPEFEPSEQEDSSSAERGLGPSPAGDGPSGSGKHHRQAPGLLWDASHQQEQPTSSSHHGGAGAVEIRSRHSSYPAGTEDDEGMGEEPSPFRGRSRSAPPNLWAAQRYGRELRRMSDEFVDSFKKGLPRPKSAGTATQMRQSSSWTRVFQSWWDRNLGRGSSAPSQ

Experiments:
GAL4DBD–MCL-1, Q07820 = assay: two-hybrid; mammalian two-hybrid in HeLa cells stably expressing a GAL4-luciferase reporter; bait (GAL4DBD) and prey (VP16AD) from one plasmid; A-1210477 for 24 h; luciferase (ONE-Glo), percent of complex remaining relative to untreated controls; conditions: remark: other sources report otherwise
eGFP-BCL-2, P10415 = assay: live-cell redistribution imaging (mCherry-BH3 protein at mitochondria); T-REx-293 cells stably expressing eGFP-anti-apoptotic and mCherry-BH3-only fusion proteins from a bicistronic module; spinning disk confocal imaging; ratio of mitochondrial to cytoplasmic mCherry after ABT-737, A-1210477 or DMSO; conditions: remark: other sources report otherwise

binding (GAL4DBD–MCL-1, Q07820)	binding (eGFP-BCL-2, P10415)	Binder
binds	–	B1
–	binds	B2
